Literature values as cited in patent publication US20230145794A1, “SOLVENT COMPOSITIONS PROMOTING PLANT GROWTH” (WinField Solutions, LLC, priority 2021, published 2023).
Read-outs that look alike come from different tables or passages of the source. Some entries share one result that the patent states for a list of compounds.

Details: known solvent, from Safety Data Sheet, cited from earlier work

CC(O)CO (centres unmarked) [compound 9, Propylene Glycol]
Boiling Point (listed as propylene glycol): above 200 C. °
Flash Point (listed as propylene glycol): above 115 C. °

CC(=O)OCCCCCCCC=O [compound 11, Oxo-octyl acetate]
Boiling Point (listed as oxo-octyl acetate): above 200 C. °

CC(=O)OCC(COC(C)=O)OC(C)=O [compound 12, Glyceryl triacetate]
Boiling Point (listed as glyceryl triacetate): above 200 C. °
Flash Point (listed as glyceryl triacetate): above 115 C. °
